In paper PMC11260169:
No constants are given. Whether binding was seen depends on the method and setting. Some binding calls cover weakened binding; strength is not graded here.

Biological target: T1, Flotillin2 (human (endogenous in HEK293 GnTl-)) (UniProt Q14254)
T1 sequence (chain, N-myristoylated on Gly2 (as the paper says, citing ref. 19)): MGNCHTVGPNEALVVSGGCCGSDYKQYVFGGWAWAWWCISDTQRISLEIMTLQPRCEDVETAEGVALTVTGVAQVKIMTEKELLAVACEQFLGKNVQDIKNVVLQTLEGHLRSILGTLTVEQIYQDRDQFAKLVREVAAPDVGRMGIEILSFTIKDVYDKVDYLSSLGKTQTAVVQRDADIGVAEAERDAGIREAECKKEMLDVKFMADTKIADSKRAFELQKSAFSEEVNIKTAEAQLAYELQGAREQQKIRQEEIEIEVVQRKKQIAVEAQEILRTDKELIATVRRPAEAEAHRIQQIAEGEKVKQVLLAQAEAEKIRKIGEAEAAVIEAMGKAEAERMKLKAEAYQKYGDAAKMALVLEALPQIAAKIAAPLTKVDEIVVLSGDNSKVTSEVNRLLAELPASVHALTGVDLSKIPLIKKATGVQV
Assay: cryo-EM structure; endogenous Flotillin cage on native membrane vesicles from HEK293 GnTl- cells (NEM, Ca2+ GPMV method, sonicated, sucrose gradient), without detergent; single-particle analysis, C44 then C22 symmetry, 3.5 Å

B1: Flotillin1 (protein, UniProt O75955 1-427)
chain: MFFTCGPNEAMVVSGFCRSPPVMVAGGRVFVLPCIQQIQRISLNTLTLNVKSEKVYTRHGVPISVTGIAQVKIQGQNKEMLAAACQMFLGKTEAEIAHIALETLEGHQRAIMAHMTVEEIYKDRQKFSEQVFKVASSDLVNMGISVVSYTLKDIHDDQDYLHSLGKARTAQVQKDARIGEAEAKRDAGIREAKAKQEKVSAQYLSEIEMAKAQRDYELKKAAYDIEVNTRRAQADLAYQLQVAKTKQQIEEQRVQVQVVERAQQVAVQEQEIARREKELEARVRKPAEAERYKLERLAEAEKSQLIMQAEAEAASVRMRGEAEAFAIGARARAEAEQMAKKAEAFQLYQEAAQLDMLLEKLPQVAEEISGPLTSANKITLVSSGSGTMGAAKVTGEVLDILTRLPESVERLTGVSISQVNHKPLRTA
binding: binds
